Experimental data reported in PubChem BioAssay AID1347076 (National Center for Advancing Translational Sciences (NCATS), 2019).
In all, about 400,000 compounds went through this assay and about 13,000 (3.2%) were called active. This list was built around the results that the source calls inconclusive (neither active nor inactive); the mix of calls is not that of the screen. The call rests on the fitted dose curve; in most records, active means well fitted cell-killing curve with a large enough effect; inconclusive means small, poorly fitted or top-dose-only effect, or effect the other way; inactive means flat fitted curve, though single readings scatter. A potency beside an inconclusive call is a rough fit, not a confirmed value.

Experiment: qHTS assay for MDR1-selective chemotherapeutics: Primary screen using the drug-selected MDR subline cells KB-V1; further: nearly all actives have a fitted effect of over 60% in size
Settings: KB-V1 MDR cells viability, CellTiter-Glo, 72 h; activity change, negative = cytotoxicity: at 46.1 µM (top of the series)
Procedure, shortened: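 Luminescent ATP read-out (CellTiter-Glo, 10 min) measures survival of drug-selected KB-V1 MDR cells after 72 h, 37 degrees C compound exposure. Medium: phenol-red-free DMEM, 10% FBS. Values from fitted concentration-response curves.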
On the % scale 0 is the no-effect control and ±100 the full control effect; potency means the concentration at half of the fitted maximal effect.

Compound | activity change, negative = cytotoxicity | Potency
Nc1nc2n(n1)C(c1cccs1)CC(c1ccc(F)cc1)N2 (stereo unspecified) | inactive: -9.94% | 
CCn1nnnc1SCC(=O)N1N=C(c2cccs2)CC1c1cccs1 (stereo unspecified) |  | inconclusive: 18.4 µM [cytotoxic, single point]
COc1ccc(S(=O)(=O)NCc2ccco2)cc1NC(=O)c1ccccc1 |  | inconclusive: 29.1 µM [cytotoxic, single point]
CCc1ccc2nc(N3CCN(C(=O)C(C)(C)C)CC3)sc2c1 |  | inconclusive: 18.4 µM [cytotoxic, single point]
N#C/C(=C/c1ccc(N2CCOCC2)o1)c1nc2ccccc2[nH]1 |  | inconclusive: 18.4 µM [cytotoxic, single point]
COc1ccc(-c2nc(C#N)c(NCCc3ccccc3)o2)cc1 |  | inconclusive: 8.2 µM [cytotoxic, partial curve, poor fit]
C/C(=N\O)c1ccc2c3ccccc3n(C)c2c1 |  | inconclusive: 1.3 µM [cytotoxic, full curve, poor fit]
N#CCSc1nc2c(cc1C#N)CCCCCC2 |  | inconclusive: 29.1 µM [cytotoxic, partial curve, poor fit]
Clc1ccc(SCCn2cncn2)cc1 | inactive: 6.05% | 
CC1(Cc2ccc(C(F)(F)F)o2)C(=O)Nc2cc(-c3ccc(F)cc3F)ccc21 (stereo unspecified) |  | inconclusive: 20.6 µM [cytotoxic, single point]
COc1ccc(C(C(=O)NCc2ccccc2)N(Cc2ccco2)C(=O)c2snc(C(N)=O)c2N)cc1OC (stereo unspecified) |  | inconclusive: 11.6 µM [cytotoxic, partial curve, poor fit]
COc1ccc(NC(=O)CN2CCC(C(=O)c3ccc(C)cc3)CC2)c(OC)c1 | inactive: 2.15% | 
COc1ccc(SCCN2CC[C@@H](O)CCC2=O)cc1 |  | inactive
O=C(CCC(=O)N1CCN(c2ccccc2F)CC1)N1CCN(c2ccc(F)cc2)CC1 |  | inconclusive: 32.6 µM [cytotoxic, single point]
O=C(CN1CCN(Cc2ccccc2)CC1)Nc1cccc(Cl)c1Cl |  | inconclusive: 29.1 µM [cytotoxic, single point]
Cc1ccc(CCNc2ncnc(Cl)c2N)cc1 |  | inconclusive: 7.31 µM [cytotoxic, partial curve, poor fit]
COCCCNC(=O)C1CCC(CNS(=O)(=O)c2ccc(Cl)cc2)CC1 (stereo unspecified) |  | inconclusive: 14.6 µM [cytotoxic, partial curve, poor fit]
Cc1ccc(S(=O)(=O)N(CC(=O)NCc2ccco2)Cc2ccccc2F)cc1 |  | active: 8.2 µM
Cc1ccc(N(C)S(=O)(=O)c2ccc(-c3cc(C)no3)s2)cc1 |  | inconclusive: 6.51 µM [cytotoxic, full curve, poor fit]
CCCCN(C)C1CCN(C(=S)Nc2cccc(OC)c2)CC1 | inactive: 0.806% | 
O=C(NCc1cccs1)C1CCCN(S(=O)(=O)c2ccc(Br)s2)C1 (stereo unspecified) |  | inconclusive: 11.6 µM [cytotoxic, partial curve]
CC(=O)Nc1nonc1-c1nnc(SCc2ccc(Cl)cc2)n1C | inactive: -5.41% | 
COCCOC(=O)c1c(C)nc(SCC(=O)Nc2cccc3ccccc23)c(C#N)c1-c1ccco1 |  | inconclusive: 25.9 µM [cytotoxic, single point]

Compound | activity change, negative = cytotoxicity | Potency
CCOC(=O)C(=C1Nc2ccccc2N1)n1c(-c2cccnc2)nc2ccccc21 |  | active: 20.6 µM
CCCn1c(=O)c2c(nc3n2CCCN3CCc2ccccc2)n(C)c1=O |  | inconclusive: 18.4 µM [cytotoxic, single point]
COc1ccc(C(=O)COC(=O)C2CCC(=O)N2)cc1 (stereo unspecified) | inactive: -4.29% | 
COc1ccc(NC(=O)CSc2nc(C3CC3)nc3ccccc23)cc1 |  | inconclusive: 16.4 µM [cytotoxic, single point]
O=C(/C=C/c1ccco1)NC(=S)Nc1nc(-c2ccc(Cl)cc2)cs1 |  | inconclusive: 3.26 µM [cytotoxic, partial curve, poor fit]
COCc1nnc(NC(=O)c2ccc(S(=O)(=O)N3CCCC3)cc2)o1 |  | inconclusive: 32.6 µM [cytotoxic, partial curve, poor fit]
COc1ccc(OC)c(N(CC(=O)N2CCCC2)S(=O)(=O)c2ccccc2)c1 | inactive: -30.7% | 
C=CCn1cnc2c(c1=O)c1nc3ccccc3nc1n2/N=C/c1cccc(OC)c1OC |  | active: 23.1 µM
CCCc1c(-c2ccccc2F)ncn1CCc1ccccc1OC |  | active: 16.4 µM
CCOC(=O)N1CCC(NC(=O)CS(=O)(=O)Cc2nc(-c3cccc(OC)c3)oc2C)CC1 | inactive: -25.1% | 
Cc1cnn(Cc2ccccc2)c1N | inactive: 4.92% | 
CCCOc1ccc(C(=O)Nc2cc(-c3nc4cc(C)cc(C)c4o3)ccc2C)cc1 | inactive: 24.1% | 
CCOc1ccc(C(=O)Nc2cc(S(=O)(=O)Nc3ccccc3Cl)ccc2N2CCOCC2)cc1 |  | active: 6.51 µM
Cc1ccc2cc(CN(Cc3ccc(F)cc3)Cc3nnnn3C3CCCC3)c(=O)[nH]c2c1 |  | inconclusive: 23.1 µM [cytotoxic, partial curve, poor fit]
CN1C(=O)c2ccccc2Sc2ccc(NC(=O)N3CCN(c4ccccc4F)CC3)cc21 | inactive: -26.5% | 
Cc1cccn2c(=O)c3cc(C(=O)NC4CCCCC4C)n(C)c3nc12 (stereo unspecified) | inactive: -12.3% | 
COc1ccc2[nH]c(=O)c(CN(CC3CCCO3)C(=O)Nc3ccccc3OC)cc2c1 (stereo unspecified) |  | inconclusive: 32.6 µM [cytotoxic, single point]
O=C(CN1CCOCC1)N1CCOCC1 |  | inconclusive: 29.1 µM [rising, single point]
O=C(NCCCNC(=O)c1ccc(-c2cc(Cl)ccc2Cl)o1)c1cnccn1 | inactive: 13.2% | 
O=C(O)CNS(=O)(=O)c1c(Cl)cccc1Cl |  | inconclusive: 20.6 µM [rising, single point]
CN1CCN(c2ncccc2S(=O)(=O)N2CCCCC2)CC1 |  | inconclusive: 29.1 µM [cytotoxic, single point]
Clc1ccc(CCNC(c2nnc(-c3ccccc3)o2)c2ccccc2Cl)cc1 (stereo unspecified) |  | inconclusive: 16.4 µM [cytotoxic, single point]
Cc1ccc2[nH]c(=O)c(CN(Cc3cccs3)Cc3nnnn3Cc3ccccc3)cc2c1 | inactive: 0.656% | 

4 of these compounds, set out differently.

| Compound | activity change, negative = cytotoxicity | Potency |
| --- | --- | --- |
| COc1ccc(OC)c(N(CC(=O)N2CCCC2)S(=O)(=O)c2ccccc2)c1 | inactive: -30.7% |  |
| C=CCn1cnc2c(c1=O)c1nc3ccccc3nc1n2/N=C/c1cccc(OC)c1OC |  | active: 23.1 µM |
| CCCc1c(-c2ccccc2F)ncn1CCc1ccccc1OC |  | active: 16.4 µM |
| CCOC(=O)N1CCC(NC(=O)CS(=O)(=O)Cc2nc(-c3cccc(OC)c3)oc2C)CC1 | inactive: -25.1% |  |
